From patent US11707440B2 (priority 2017, dated 2023)

Settings: 25 μL sample volume
Excerpt: This example provides an LC-MS/MS method for the determination of ketamine and norketamine in sodium heparin human plasma using ketamine-d4 and norketamine-d4 as the respective internal standards (IS).

Row | Structure (SMILES) | Lower limit of quantitation (LLOQ) [ng/mL]
1 | CNC1(c2ccccc2Cl)CCCCC1=O (racemic) [ketamine, reference compound] | 0.500
2 | NC1(c2ccccc2Cl)CCCCC1=O (centres unmarked) [Norketamine] | 0.500
